In brackets after ≈: the same amount, converted by molar mass. The name of at least one read-out is uncertain.
Tested on: Herpes simplex type 1 (TK-), strain HF
Assay type: cell-based
Settings: Vero cells, inhibition of virus-induced cytopathogenic effects, two determinations

Compound: Nc1ncnc2c1ncn2[C@@H]1O[C@H](CO)[C@@H](O)[C@@H]1O [Ara-A, arabinosyl adenine]
- ID50: 1.9 µg/mL (≈ 7.11 µM)

Reference: patent publication US4975434A, “Antiviral and anticancer cyclopentenyl cytosine” (priority 1989, dated 1990)
